The list is a part of this screen's results and no random one: it is rich in T/C values a quarter to a half above the control, in often repeated tests (any T/C) and in doses without a T/C. Further doses and runs are listed elsewhere. T/C: endpoint of the treated group in % of that of the vehicle group. Some doses have a count of surviving animals in place of a T/C: the source files T/C as zero there, which appears to mark a toxic dose or a test without result, not a measured value. Counts of survivors are from the toxicity check (mostly the fifth day) where no day follows; animals may have died later. Schedules are NCI's codes, taken here to give the interval after Q, in days (D) or hours (H), and the number of doses after X. Where survival is the endpoint, the PubChem record calls one and a half times the control and up active, and a quarter to a half above the control has no call in these data; cut-offs in other NCI protocols can differ. Some T/C values carry the count of animals alive at the toxicity check (mostly the fifth day); where none is given, no animal had died by that day. Some doses were run more than once; the values are given in rising order. Signs of the kind (2×) stand for listed records that agree.
Test system: CD2F1 mice, L1210 leukemia ip, survival T/C
Assay: NCI In Vivo Anticancer Drug Screen. Data for tumor model L1210 Leukemia (intraperitoneal) in CD2F1 (CDF1) mice
Conditions: T/C endpoint: mean survival time, higher T/C = longer survival
Summary of the method: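 Vehicle-treated tumor-bearing mice served as controls (C) for compound-treated mice (T). Reported figure is T divided by C.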

[1] = dose: 16.0 mg/kg/injection, schedule: Q01DX009 (ip), vehicle: saline + alcohol

O=NN(CCCl)C(=O)NCCCl
T/C (dose: 10.0 mg/kg/injection, schedule: Q01DX001 (ip), vehicle: saline, evaluated on day 5): 114, 143, 150, 151, 220 % of control
T/C (dose: 10.0 mg/kg/injection, schedule: Q01DX001 (ip), vehicle: saline, evaluated on day 30): 150 (2×), 153, 182 % of control
T/C (dose: 10.0 mg/kg/injection, schedule: Q01DX001 (ip), vehicle: saline, evaluated on day 60): 219 % of control
T/C (dose: 15.0 mg/kg/injection, schedule: Q01DX001 (ip), vehicle: distilled water + alcohol): 141 % of control
T/C (dose: 15.0 mg/kg/injection, schedule: Q01DX001 (ip), vehicle: saline + alcohol, evaluated on day 30): 151 and 156 % of control
T/C (dose: 15.0 mg/kg/injection, schedule: Q01DX001 (ip), vehicle: saline + alcohol, evaluated on day 40): 129 and 203 % of control
T/C (dose: 16.0 mg/kg/injection, schedule: Q01DX001 (ip), vehicle: saline + alcohol, evaluated on day 5): 127, 163, 179, 186, 203, 228, 255, 260, 325, 329, 364 % of control
T/C (dose: 16.0 mg/kg/injection, schedule: Q01DX001 (ip), vehicle: saline + alcohol, evaluated on day 6): 186 % of control
T/C (dose: 16.0 mg/kg/injection, schedule: Q01DX001 (ip), vehicle: saline + alcohol, evaluated on day 30): 139 and 142 % of control
T/C (dose: 16.0 mg/kg/injection, schedule: Q01DX001 (ip), vehicle: saline + alcohol, evaluated on day 45): 168 % of control
T/C (dose: 16.0 mg/kg/injection, schedule: Q01DX009 (ip), vehicle: Klucel (hydroxypropylcellulose) (HPC)): 117, 120, 130, 147 % of control
T/C (dose: 16.0 mg/kg/injection, schedule: Q01DX009 (ip), vehicle: other): 131 and 136 % of control
T/C [1]: 108 [5 of 6 alive], 123, 125, 127, 132, 138 % of control
survivor count [1]: 0 of 6
T/C (dose: 16.0 mg/kg/injection, schedule: Q01DX009 (ip), vehicle: saline, evaluated on day 30): 114 (2×), 118, 134, 135 (2×), 141, 145, 147, 160, 296 % of control
T/C (dose: 16.0 mg/kg/injection, schedule: Q01DX009 (ip), vehicle: saline, evaluated on day 60): 145, 147, 160, 252 % of control
T/C (dose: 20.0 mg/kg/injection, schedule: Q01DX001 (ip), vehicle: saline + alcohol, evaluated on day 5): 196 % of control
T/C (dose: 20.0 mg/kg/injection, schedule: Q01DX001 (ip), vehicle: saline + alcohol, evaluated on day 6): 221 % of control
T/C (dose: 20.0 mg/kg/injection, schedule: Q01DX001 (ip), vehicle: saline + alcohol, evaluated on day 8): 205 % of control
T/C (dose: 20.0 mg/kg/injection, schedule: Q01DX001 (ip), vehicle: saline + alcohol, evaluated on day 30): 197 % of control
T/C (dose: 20.0 mg/kg/injection, schedule: Q01DX001 (ip), vehicle: saline + alcohol, evaluated on day 45): 181 % of control
T/C (dose: 20.0 mg/kg/injection, schedule: Q01DX001 (ip), vehicle: saline + alcohol, evaluated on day 60): 172, 400, 581 % of control
T/C (dose: 20.0 mg/kg/injection, schedule: Q01DX001 (ip), vehicle: saline, evaluated on day 5): 204, 211, 541 % of control
T/C (dose: 20.0 mg/kg/injection, schedule: Q01DX001 (ip), vehicle: saline, evaluated on day 7): 198 % of control
T/C (dose: 20.0 mg/kg/injection, schedule: Q01DX001 (ip), vehicle: saline, evaluated on day 30): 195, 202, 207, 325 % of control
T/C (dose: 20.0 mg/kg/injection, schedule: Q01DX001 (ip), vehicle: saline, evaluated on day 60): 533 % of control
T/C (dose: 30.0 mg/kg/injection, schedule: Q01DX001 (ip), vehicle: saline + alcohol, evaluated on day 30): 157 and 221 % of control
T/C (dose: 30.0 mg/kg/injection, schedule: Q01DX001 (ip), vehicle: saline + alcohol, evaluated on day 40): 194 and 459 % of control
T/C (dose: 30.0 mg/kg/injection, schedule: Q01DX001 (ip), vehicle: saline + alcohol, evaluated on day 60): 208, 659, 804 % of control
T/C (dose: 32.0 mg/kg/injection, schedule: Q01DX001 (ip), vehicle: saline + alcohol, evaluated on day 5): 168, 177, 317, 412, 505, 511, 523, 542, 555, 660, 669, 686 % of control
T/C (dose: 32.0 mg/kg/injection, schedule: Q01DX001 (ip), vehicle: saline + alcohol, evaluated on day 6): 212 % of control
T/C (dose: 32.0 mg/kg/injection, schedule: Q01DX001 (ip), vehicle: saline + alcohol, evaluated on day 30): 164 and 263 % of control
T/C (dose: 32.0 mg/kg/injection, schedule: Q01DX001 (ip), vehicle: saline + alcohol, evaluated on day 45): 360 % of control
T/C (dose: 32.0 mg/kg/injection, schedule: Q04DX003 (ip), vehicle: saline + alcohol): 148 % of control

— PubChem BioAssay AID256 (DTP/NCI, 2004)
